Assay results from the supplement of paper PMC12823440, “Inhibitors supercharge kinase turnover through native proteolytic circuits” (Nature, 2025).
The other results are listed elsewhere or left out. Hit calls seldom repeat between salt and free forms of one compound.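 Kinases, fused to nanoluciferase, were expressed in K562 cells; luminescence was measured every 4 h from 2 to 18 h as percent of control (DMSO = 100%, positive control = 0%). A time point is decreased if signal falls significantly (2 sigma). Hits were called by the authors by a rule that is not shown; the count of time points alone does not decide it.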

Protein sequences, listed by entry. Tags and fused reporters are not part of them. Lines headed by an entry give the natural chain unless they say otherwise; changes in a name come on top.
UniProt Q13131: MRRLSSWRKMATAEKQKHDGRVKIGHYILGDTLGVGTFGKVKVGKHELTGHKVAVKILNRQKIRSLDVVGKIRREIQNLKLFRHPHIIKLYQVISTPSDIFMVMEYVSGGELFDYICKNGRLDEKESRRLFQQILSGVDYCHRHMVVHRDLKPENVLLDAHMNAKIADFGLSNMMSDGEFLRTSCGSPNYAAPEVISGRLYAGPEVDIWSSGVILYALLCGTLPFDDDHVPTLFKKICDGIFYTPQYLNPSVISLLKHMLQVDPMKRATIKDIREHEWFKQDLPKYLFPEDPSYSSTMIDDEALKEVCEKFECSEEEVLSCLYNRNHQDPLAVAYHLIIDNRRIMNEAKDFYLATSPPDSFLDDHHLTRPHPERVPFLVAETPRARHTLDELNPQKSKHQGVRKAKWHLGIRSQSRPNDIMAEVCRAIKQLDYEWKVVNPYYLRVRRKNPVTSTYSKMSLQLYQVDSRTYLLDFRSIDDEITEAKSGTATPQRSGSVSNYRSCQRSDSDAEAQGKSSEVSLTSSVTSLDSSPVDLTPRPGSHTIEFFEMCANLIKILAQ
UniProt Q9UBF8: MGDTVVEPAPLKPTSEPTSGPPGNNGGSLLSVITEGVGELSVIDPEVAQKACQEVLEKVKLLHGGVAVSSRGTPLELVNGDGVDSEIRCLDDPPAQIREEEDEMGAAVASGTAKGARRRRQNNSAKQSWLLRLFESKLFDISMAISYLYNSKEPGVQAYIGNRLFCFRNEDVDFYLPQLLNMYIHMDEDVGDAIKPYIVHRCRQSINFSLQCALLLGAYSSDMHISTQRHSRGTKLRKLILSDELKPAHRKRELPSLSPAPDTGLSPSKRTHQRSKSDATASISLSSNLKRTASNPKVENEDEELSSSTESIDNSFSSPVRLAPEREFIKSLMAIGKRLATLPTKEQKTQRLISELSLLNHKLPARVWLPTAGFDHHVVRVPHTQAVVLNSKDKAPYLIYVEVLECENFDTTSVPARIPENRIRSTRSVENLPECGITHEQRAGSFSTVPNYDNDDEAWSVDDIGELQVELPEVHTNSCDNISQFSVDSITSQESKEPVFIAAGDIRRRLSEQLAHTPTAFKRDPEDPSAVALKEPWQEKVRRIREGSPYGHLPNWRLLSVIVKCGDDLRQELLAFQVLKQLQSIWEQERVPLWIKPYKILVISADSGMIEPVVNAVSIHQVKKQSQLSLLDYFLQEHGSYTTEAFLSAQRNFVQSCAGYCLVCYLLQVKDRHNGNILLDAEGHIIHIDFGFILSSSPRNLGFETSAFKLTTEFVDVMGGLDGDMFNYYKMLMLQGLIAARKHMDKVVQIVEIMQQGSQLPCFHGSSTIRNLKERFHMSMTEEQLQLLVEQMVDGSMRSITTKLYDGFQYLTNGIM
UniProt Q06187: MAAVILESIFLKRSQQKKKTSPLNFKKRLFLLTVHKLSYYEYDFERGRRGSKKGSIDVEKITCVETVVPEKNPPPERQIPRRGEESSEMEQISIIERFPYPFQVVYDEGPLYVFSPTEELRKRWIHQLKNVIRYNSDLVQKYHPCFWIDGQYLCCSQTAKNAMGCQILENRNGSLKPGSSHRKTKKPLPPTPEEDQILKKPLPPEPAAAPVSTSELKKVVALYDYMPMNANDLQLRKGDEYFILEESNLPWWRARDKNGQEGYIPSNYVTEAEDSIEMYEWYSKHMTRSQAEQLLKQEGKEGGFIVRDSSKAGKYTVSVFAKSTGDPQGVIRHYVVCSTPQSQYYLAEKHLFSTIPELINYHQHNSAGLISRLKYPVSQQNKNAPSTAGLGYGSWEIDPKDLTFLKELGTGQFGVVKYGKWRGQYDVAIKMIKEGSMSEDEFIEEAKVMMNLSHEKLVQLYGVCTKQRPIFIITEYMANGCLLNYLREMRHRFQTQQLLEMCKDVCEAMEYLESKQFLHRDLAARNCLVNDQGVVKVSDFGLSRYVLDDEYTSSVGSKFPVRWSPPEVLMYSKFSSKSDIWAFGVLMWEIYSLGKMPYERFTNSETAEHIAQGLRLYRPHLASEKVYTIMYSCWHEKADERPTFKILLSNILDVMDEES
UniProt P51813: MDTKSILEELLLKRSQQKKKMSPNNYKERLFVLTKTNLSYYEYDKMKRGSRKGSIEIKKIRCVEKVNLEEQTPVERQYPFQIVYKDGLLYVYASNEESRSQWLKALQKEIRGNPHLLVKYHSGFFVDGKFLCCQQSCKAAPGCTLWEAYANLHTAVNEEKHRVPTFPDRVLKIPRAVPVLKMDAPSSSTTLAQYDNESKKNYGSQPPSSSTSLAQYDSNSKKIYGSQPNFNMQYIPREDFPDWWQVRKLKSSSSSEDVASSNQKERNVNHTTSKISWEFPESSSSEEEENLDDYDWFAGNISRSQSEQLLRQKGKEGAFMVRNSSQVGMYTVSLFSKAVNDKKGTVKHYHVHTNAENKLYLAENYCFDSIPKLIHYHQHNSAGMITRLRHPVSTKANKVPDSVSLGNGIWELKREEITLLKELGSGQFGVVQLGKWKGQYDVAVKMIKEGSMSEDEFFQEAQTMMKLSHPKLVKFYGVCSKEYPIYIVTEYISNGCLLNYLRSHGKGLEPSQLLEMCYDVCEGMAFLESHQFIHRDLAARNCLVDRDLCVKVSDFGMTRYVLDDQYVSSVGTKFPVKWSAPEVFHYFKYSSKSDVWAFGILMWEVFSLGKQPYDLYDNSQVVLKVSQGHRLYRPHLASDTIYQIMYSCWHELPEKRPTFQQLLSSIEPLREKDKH
UniProt P07949, whole entry, looked up: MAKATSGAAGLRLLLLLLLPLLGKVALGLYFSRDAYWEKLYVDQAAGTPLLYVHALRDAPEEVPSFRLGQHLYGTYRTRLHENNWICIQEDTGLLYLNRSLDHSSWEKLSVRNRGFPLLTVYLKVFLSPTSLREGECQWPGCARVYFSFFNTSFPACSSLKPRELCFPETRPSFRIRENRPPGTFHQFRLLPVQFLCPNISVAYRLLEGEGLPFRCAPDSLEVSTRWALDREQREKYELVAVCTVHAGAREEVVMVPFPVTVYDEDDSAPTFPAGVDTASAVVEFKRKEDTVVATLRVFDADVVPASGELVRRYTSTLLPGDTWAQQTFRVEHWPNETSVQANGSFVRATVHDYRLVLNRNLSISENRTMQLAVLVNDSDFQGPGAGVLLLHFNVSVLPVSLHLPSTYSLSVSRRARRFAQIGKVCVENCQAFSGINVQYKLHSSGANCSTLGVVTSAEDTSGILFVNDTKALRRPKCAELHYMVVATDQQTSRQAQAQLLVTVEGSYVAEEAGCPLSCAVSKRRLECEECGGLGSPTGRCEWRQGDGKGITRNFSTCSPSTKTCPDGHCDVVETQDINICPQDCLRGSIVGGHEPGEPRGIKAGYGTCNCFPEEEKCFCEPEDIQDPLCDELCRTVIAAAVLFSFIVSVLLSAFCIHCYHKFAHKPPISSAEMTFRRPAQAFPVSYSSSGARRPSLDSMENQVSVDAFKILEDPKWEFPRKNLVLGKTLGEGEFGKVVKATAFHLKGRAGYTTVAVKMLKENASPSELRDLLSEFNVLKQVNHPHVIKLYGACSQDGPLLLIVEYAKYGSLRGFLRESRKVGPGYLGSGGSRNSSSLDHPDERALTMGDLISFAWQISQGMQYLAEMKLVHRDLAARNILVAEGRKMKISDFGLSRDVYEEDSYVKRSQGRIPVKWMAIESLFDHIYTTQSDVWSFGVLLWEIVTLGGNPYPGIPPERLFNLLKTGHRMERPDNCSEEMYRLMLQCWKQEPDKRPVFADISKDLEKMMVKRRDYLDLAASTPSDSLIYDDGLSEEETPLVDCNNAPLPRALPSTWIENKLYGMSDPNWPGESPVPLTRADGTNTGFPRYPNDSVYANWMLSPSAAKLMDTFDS
UniProt P09619, whole entry: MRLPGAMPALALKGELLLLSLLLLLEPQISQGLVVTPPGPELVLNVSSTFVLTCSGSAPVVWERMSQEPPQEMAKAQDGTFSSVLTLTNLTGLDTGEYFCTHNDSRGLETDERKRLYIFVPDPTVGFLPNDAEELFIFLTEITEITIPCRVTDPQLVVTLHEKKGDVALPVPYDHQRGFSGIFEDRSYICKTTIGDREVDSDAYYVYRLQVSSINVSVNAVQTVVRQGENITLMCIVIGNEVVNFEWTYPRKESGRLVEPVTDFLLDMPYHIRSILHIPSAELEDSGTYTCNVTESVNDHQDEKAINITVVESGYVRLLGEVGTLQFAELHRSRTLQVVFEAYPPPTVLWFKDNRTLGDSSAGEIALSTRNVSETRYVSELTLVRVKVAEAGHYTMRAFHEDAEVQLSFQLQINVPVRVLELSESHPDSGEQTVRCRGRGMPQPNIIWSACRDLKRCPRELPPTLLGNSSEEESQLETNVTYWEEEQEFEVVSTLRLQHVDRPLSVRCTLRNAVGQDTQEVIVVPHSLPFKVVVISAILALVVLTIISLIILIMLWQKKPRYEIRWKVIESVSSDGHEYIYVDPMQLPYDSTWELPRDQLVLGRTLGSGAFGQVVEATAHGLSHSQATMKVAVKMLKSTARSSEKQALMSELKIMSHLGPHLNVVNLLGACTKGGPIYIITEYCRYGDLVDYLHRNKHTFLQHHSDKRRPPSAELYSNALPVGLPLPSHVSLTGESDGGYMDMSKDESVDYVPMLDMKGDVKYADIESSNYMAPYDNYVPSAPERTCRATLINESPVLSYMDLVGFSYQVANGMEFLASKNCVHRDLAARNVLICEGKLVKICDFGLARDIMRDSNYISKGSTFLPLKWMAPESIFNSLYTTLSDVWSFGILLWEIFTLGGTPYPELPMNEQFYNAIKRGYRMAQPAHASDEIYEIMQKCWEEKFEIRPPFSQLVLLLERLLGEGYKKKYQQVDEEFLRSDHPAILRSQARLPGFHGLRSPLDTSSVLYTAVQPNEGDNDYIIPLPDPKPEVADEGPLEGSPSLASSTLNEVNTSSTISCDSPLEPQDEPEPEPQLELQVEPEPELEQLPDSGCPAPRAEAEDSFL
UniProt Q14289, whole entry, looked up: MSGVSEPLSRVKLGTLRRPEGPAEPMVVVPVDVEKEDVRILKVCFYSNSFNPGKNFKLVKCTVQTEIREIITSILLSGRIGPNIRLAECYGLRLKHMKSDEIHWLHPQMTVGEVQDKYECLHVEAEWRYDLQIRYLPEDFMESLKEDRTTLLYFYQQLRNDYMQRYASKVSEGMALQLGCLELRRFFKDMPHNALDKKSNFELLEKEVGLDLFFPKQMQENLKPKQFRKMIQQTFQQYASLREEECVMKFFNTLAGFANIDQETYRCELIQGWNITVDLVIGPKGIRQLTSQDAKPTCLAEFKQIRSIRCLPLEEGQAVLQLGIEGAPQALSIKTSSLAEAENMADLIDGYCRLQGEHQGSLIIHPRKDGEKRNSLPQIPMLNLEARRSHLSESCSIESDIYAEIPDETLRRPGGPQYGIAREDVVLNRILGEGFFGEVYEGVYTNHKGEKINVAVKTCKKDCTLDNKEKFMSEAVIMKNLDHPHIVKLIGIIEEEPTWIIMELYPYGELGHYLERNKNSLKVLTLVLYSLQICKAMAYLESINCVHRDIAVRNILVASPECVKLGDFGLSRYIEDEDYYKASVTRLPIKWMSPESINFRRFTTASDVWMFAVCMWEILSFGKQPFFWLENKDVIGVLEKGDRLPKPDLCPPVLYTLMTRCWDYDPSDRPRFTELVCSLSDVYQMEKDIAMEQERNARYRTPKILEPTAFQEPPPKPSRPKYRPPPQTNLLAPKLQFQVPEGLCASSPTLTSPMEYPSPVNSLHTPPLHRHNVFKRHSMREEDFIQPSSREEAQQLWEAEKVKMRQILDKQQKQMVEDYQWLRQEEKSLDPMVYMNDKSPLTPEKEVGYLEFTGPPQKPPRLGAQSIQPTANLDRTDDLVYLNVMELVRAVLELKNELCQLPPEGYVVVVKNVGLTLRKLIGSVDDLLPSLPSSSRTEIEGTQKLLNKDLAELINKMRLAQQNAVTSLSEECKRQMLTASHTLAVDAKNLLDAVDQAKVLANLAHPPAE
UniProt P51451: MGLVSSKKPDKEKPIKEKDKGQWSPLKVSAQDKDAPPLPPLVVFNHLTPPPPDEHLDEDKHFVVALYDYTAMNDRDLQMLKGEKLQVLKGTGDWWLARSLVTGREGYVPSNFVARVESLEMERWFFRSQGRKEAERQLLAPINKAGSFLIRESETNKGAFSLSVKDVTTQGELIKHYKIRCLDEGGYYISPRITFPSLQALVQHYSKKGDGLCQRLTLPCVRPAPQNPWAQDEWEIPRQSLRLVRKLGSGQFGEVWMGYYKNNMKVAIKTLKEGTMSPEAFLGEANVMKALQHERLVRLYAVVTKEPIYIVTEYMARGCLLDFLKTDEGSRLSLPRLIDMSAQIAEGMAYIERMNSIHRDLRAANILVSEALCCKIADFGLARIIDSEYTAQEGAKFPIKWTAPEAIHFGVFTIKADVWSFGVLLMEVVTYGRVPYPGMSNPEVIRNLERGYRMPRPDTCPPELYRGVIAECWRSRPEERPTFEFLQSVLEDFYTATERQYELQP

Assays:
Test in all cases: number of time points (of 5) at which kinase-Nluc abundance scored as decreased, DMSO-normalised (count); higher = more persistent destabilization
Umbralisib = compound: CC(C)Oc1ccc(-c2nn([C@@H](C)c3oc4ccc(F)cc4c(=O)c3-c3cccc(F)c3)c3ncnc(N)c23)cc1F [Umbralisib]; conditions: 2.5 µM; K562; 2-18 h
Bucladesine (calcium) = compound: CCCC(=O)Nc1ncnc2c1ncn2[C@@H]1O[C@@H]2COP(=O)(O)O[C@H]2[C@H]1OC(=O)CCC [Bucladesine (calcium)]; conditions: 10 µM; K562; 2-18 h
Bucladesine (sodium) = compound: CCCC(=O)Nc1ncnc2c1ncn2[C@@H]1O[C@@H]2COP(=O)(O)O[C@H]2[C@H]1OC(=O)CCC [Bucladesine (sodium)]; conditions: 10 µM; K562; 2-18 h
[1] = compound: CCCCCCCCc1ccc(CCC(N)(CO)CO)cc1 [Fingolimod (hydrochloride)]; conditions: 2.5 µM; K562; 2-18 h
Fingolimod = compound: CCCCCCCCc1ccc(CCC(N)(CO)CO)cc1 [Fingolimod]; conditions: 2.5 µM; K562; 2-18 h
[2] = compound: CCN(CC)CC(=O)Nc1c(C)cccc1C [Lidocaine (hydrochloride)]; conditions: 10 µM; K562; 2-18 h
Lidocaine = compound: CCN(CC)CC(=O)Nc1c(C)cccc1C [Lidocaine]; conditions: 10 µM; K562; 2-18 h
[3] = compound: CCN(CC)Cc1ccc(OC)c(-c2cc3c(-c4ccc(C(=O)O)c(C(C)C)c4)ccnc3[nH]2)c1; conditions: K562, 2-18 h
Baricitinib (phosphate) = compound: CCS(=O)(=O)N1CC(CC#N)(n2cc(-c3ncnc4[nH]ccc34)cn2)C1 [Baricitinib (phosphate)]; conditions: 10 µM; K562; 2-18 h
Baricitinib = compound: CCS(=O)(=O)N1CC(CC#N)(n2cc(-c3ncnc4[nH]ccc34)cn2)C1 [Baricitinib]; conditions: 10 µM; K562; 2-18 h
[4] = compound: CCS(=O)(=O)N1CCN(c2ccc(Nc3ncc(C(N)=O)c(NC4CC4)n3)cc2)CC1 [Cerdulatinib (hydrochloride)]; conditions: 10 µM; K562; 2-18 h
Cerdulatinib = compound: CCS(=O)(=O)N1CCN(c2ccc(Nc3ncc(C(N)=O)c(NC4CC4)n3)cc2)CC1 [Cerdulatinib]; conditions: 10 µM; K562; 2-18 h
[5] = compound: CCc1nc(C(N)=O)c(Nc2ccc(N3CCC(N4CCN(C)CC4)CC3)c(OC)c2)nc1NC1CCOCC1 [Gilteritinib hemifumarate]; conditions: 2 µM; K562; 2-18 h
Gilteritinib = compound: CCc1nc(C(N)=O)c(Nc2ccc(N3CCC(N4CCN(C)CC4)CC3)c(OC)c2)nc1NC1CCOCC1 [Gilteritinib]; conditions: 2 µM; K562; 2-18 h
[6] = compound: CN(C)C(=N)NC(=N)N [Metformin (hydrochloride)]; conditions: 10 µM; K562; 2-18 h
Metformin = compound: CN(C)C(=N)NC(=N)N [Metformin]; conditions: 10 µM; K562; 2-18 h
Ribociclib hydrochloride = compound: CN(C)C(=O)c1cc2cnc(Nc3ccc(N4CCNCC4)cn3)nc2n1C1CCCC1 [Ribociclib hydrochloride]; conditions: 2.5 µM; K562; 2-18 h
[7] = compound: CN(C)C(=O)c1cc2cnc(Nc3ccc(N4CCNCC4)cn3)nc2n1C1CCCC1 [Ribociclib succinate hydrate]; conditions: 2.5 µM; K562; 2-18 h
Ribociclib succinate = compound: CN(C)C(=O)c1cc2cnc(Nc3ccc(N4CCNCC4)cn3)nc2n1C1CCCC1 [Ribociclib succinate]; conditions: 10 µM; K562; 2-18 h
Ribociclib = compound: CN(C)C(=O)c1cc2cnc(Nc3ccc(N4CCNCC4)cn3)nc2n1C1CCCC1 [Ribociclib]; conditions: 10 µM; K562; 2-18 h

Measured: number of time points

PRKAA1 (UniProt Q13131)
2: [4]
0: Umbralisib | Bucladesine (calcium) | Bucladesine (sodium) | [1] | Fingolimod | [2] | Lidocaine | [3]; 2.5 µM | [3]; 10 µM | Baricitinib (phosphate) | Baricitinib | Cerdulatinib | [5] | Gilteritinib | [6] | Metformin | Ribociclib hydrochloride | [7] | Ribociclib succinate | Ribociclib

NTRK2 (UniProt Q16620)
0: Umbralisib | Bucladesine (calcium) | Bucladesine (sodium) | Fingolimod | [2] | Lidocaine | [3]; 2.5 µM | [3]; 10 µM | Baricitinib (phosphate) | Baricitinib | [5] | Gilteritinib | [6] | Metformin | Ribociclib hydrochloride | [7] | Ribociclib succinate | Ribociclib
1: Cerdulatinib
3: [4]

PIK4CB (UniProt Q9UBF8)
3: [4]
0: Umbralisib | Bucladesine (calcium) | Bucladesine (sodium) | [1] | Fingolimod | [2] | Lidocaine | [3]; 2.5 µM | [3]; 10 µM | Baricitinib (phosphate) | Baricitinib | [5] | Gilteritinib | [6] | Metformin | Ribociclib hydrochloride | [7] | Ribociclib succinate | Ribociclib
2: Cerdulatinib

RIPK1 (UniProt Q13546)
3: [4]
0: Umbralisib | Bucladesine (calcium) | Bucladesine (sodium) | [1] | Fingolimod | [2] | Lidocaine | [3]; 2.5 µM | [3]; 10 µM | Baricitinib (phosphate) | Baricitinib | Cerdulatinib | [5] | Gilteritinib | [6] | Metformin | Ribociclib hydrochloride | [7] | Ribociclib succinate | Ribociclib

BTK (UniProt Q06187)
0: Umbralisib | Bucladesine (calcium) | Bucladesine (sodium) | [1] | Fingolimod | [2] | Lidocaine | [3]; 2.5 µM | [3]; 10 µM | Baricitinib (phosphate) | Baricitinib | [4] | Cerdulatinib | [5] | Gilteritinib | [6] | Metformin | Ribociclib hydrochloride | [7] | Ribociclib succinate | Ribociclib

BMX (UniProt P51813)
1: Cerdulatinib
0: Umbralisib | Bucladesine (calcium) | Bucladesine (sodium) | [1] | Fingolimod | [2] | Lidocaine | [3]; 2.5 µM | [3]; 10 µM | Baricitinib (phosphate) | Baricitinib | [5] | Gilteritinib | [6] | Metformin | Ribociclib hydrochloride | [7] | Ribociclib succinate | Ribociclib
3: [4]

DDR1 (UniProt Q08345)
4: [4] | Cerdulatinib
0: Umbralisib | Bucladesine (calcium) | Bucladesine (sodium) | [1] | Fingolimod | [2] | Lidocaine | [3]; 2.5 µM | [3]; 10 µM | Baricitinib (phosphate) | Baricitinib | [5] | Gilteritinib | [6] | Metformin | Ribociclib hydrochloride | [7] | Ribociclib succinate | Ribociclib

RET (UniProt P07949)
3: [4]
0: Umbralisib | Bucladesine (calcium) | Bucladesine (sodium) | [1] | Fingolimod | [2] | Lidocaine | [3]; 2.5 µM | [3]; 10 µM | Baricitinib (phosphate) | Baricitinib | Cerdulatinib | [5] | Gilteritinib | [6] | Metformin | Ribociclib hydrochloride | [7] | Ribociclib succinate | Ribociclib

PDGFRB (UniProt P09619)
3: [4]
0: Umbralisib | Bucladesine (calcium) | Bucladesine (sodium) | [1] | Fingolimod | [2] | Lidocaine | [3]; 2.5 µM | [3]; 10 µM | Baricitinib (phosphate) | Baricitinib | Cerdulatinib | [5] | Gilteritinib | [6] | Metformin | Ribociclib hydrochloride | [7] | Ribociclib succinate | Ribociclib

SRC (UniProt P12931)
0: Umbralisib | Bucladesine (calcium) | Bucladesine (sodium) | [1] | Fingolimod | [2] | Lidocaine | [3]; 2.5 µM | [3]; 10 µM | Baricitinib (phosphate) | Baricitinib | [4] | Cerdulatinib | [5] | Gilteritinib | [6] | Metformin | Ribociclib hydrochloride | [7] | Ribociclib succinate | Ribociclib

EPHA2 (UniProt P29317)
3: [4]
0: Umbralisib | Bucladesine (calcium) | Bucladesine (sodium) | [1] | Fingolimod | [2] | Lidocaine | [3]; 2.5 µM | [3]; 10 µM | Baricitinib (phosphate) | Baricitinib | Cerdulatinib | [5] | Gilteritinib | [6] | Metformin | Ribociclib hydrochloride | [7] | Ribociclib succinate | Ribociclib

PTK2B (UniProt Q14289)
0: Umbralisib | Bucladesine (calcium) | Bucladesine (sodium) | [1] | Fingolimod | [2] | Lidocaine | [3]; 2.5 µM | [3]; 10 µM | Baricitinib (phosphate) | Baricitinib | Cerdulatinib | [5] | Gilteritinib | [6] | Metformin | Ribociclib hydrochloride | [7] | Ribociclib succinate | Ribociclib
2: [4]

Random excerpt: 2 entries already listed.
EPHA2 (UniProt P29317)
3: [4]
0: Umbralisib | Bucladesine (calcium) | Bucladesine (sodium) | [1] | Fingolimod | [2] | Lidocaine | [3]; 2.5 µM | [3]; 10 µM | Baricitinib (phosphate) | Baricitinib | Cerdulatinib | [5] | Gilteritinib | [6] | Metformin | Ribociclib hydrochloride | [7] | Ribociclib succinate | Ribociclib

PDGFRB (UniProt P09619)
3: [4]
0: Umbralisib | Bucladesine (calcium) | Bucladesine (sodium) | [1] | Fingolimod | [2] | Lidocaine | [3]; 2.5 µM | [3]; 10 µM | Baricitinib (phosphate) | Baricitinib | Cerdulatinib | [5] | Gilteritinib | [6] | Metformin | Ribociclib hydrochloride | [7] | Ribociclib succinate | Ribociclib

Following part:

BLK (UniProt P51451)
2: [4]
1: [1]
0: Umbralisib | Bucladesine (calcium) | Bucladesine (sodium) | Fingolimod | [2] | Lidocaine | [3]; 2.5 µM | [3]; 10 µM | Baricitinib (phosphate) | Baricitinib | Cerdulatinib | [5] | Gilteritinib | [6] | Metformin | Ribociclib hydrochloride | [7] | Ribociclib succinate | Ribociclib

FGR (UniProt P09769)
0: Umbralisib | Bucladesine (calcium) | Bucladesine (sodium) | [1] | Fingolimod | [2] | Lidocaine | [3]; 2.5 µM | [3]; 10 µM | Baricitinib (phosphate) | Baricitinib | [4] | Cerdulatinib | [5] | Gilteritinib | [6] | Metformin | Ribociclib hydrochloride | [7] | Ribociclib succinate | Ribociclib
